{"source": "PubChem BioAssay AID1224826 (NIAID, 2016)", "test": "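Genes that change LPS-induced Tnf promoter activity in mouse macrophages when knocked down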 (primary screen)", "system": "RAW264.7 G9 macrophages from mouse bearing reporters for p65 (GFP) and the Tnf promoter (mCherry)", "knock-down reagent": "siRNA pool against mouse genes, 100 nM", "timing": "16 h of LPS stimulation, after 2 days of siRNA transfection", "treatment": "bacterial lipopolysaccharide (Salmonella minnesota R595), 10 ng/ml", "read-out": "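Imaged Tnf reporter mCherry in nuclei, minus background, normalised per plate to the median and expressed as robust z-scores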", "direction": "Tnf reporter robust z-score: higher = stronger Tnf promoter reporter signal after LPS", "hit rule": "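Called active when robust z-score is at most -1.3, matching the median of the Tlr4 knock-down control, or over 3; control wells and wells with under 50 cells never active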", "meaning of the calls": "active = Tnf reporter clearly lowered or raised; inactive = no clear change in Tnf reporter", "note": "Shown is a random part of about 17,000 deposited reagents. Of all reagents, about 1,110 (6.6%) got an active call. 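Active means lowered or raised reporter signal; replicate intensities are raw and not normalised per plate.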 Further read-outs or replicates are left out here."}
{"gene":"Boll (GeneID 75388)","Tnf reporter robust z-score":-1.35,"fewer than 50 cells in well":"enough cells in well","Outcome":"active"}
{"gene":"Dpp3 (GeneID 75221)","Tnf reporter robust z-score":-0.47,"fewer than 50 cells in well":"enough cells in well","Outcome":"inactive"}
{"gene":"Calcrl (GeneID 54598)","Tnf reporter robust z-score":-0.82,"fewer than 50 cells in well":"enough cells in well","Outcome":"inactive"}
{"gene":"Stn1 (GeneID 108689)","Tnf reporter robust z-score":-0.78,"fewer than 50 cells in well":"enough cells in well","Outcome":"inactive"}

An excerpt from above, reduced to “fewer than 50 cells in well”.
Boll (GeneID 75388): enough cells in well
Dpp3 (GeneID 75221): enough cells in well

Further reagents:
{"gene":"Cep295nl (GeneID 58251)","Tnf reporter robust z-score":-0.89,"fewer than 50 cells in well":"enough cells in well","Outcome":"inactive"}
{"gene":"Nub1 (GeneID 53312)","Tnf reporter robust z-score":-0.69,"fewer than 50 cells in well":"enough cells in well","Outcome":"inactive"}
{"gene":"Vps26b (GeneID 69091)","Tnf reporter robust z-score":-0.14,"fewer than 50 cells in well":"enough cells in well","Outcome":"inactive"}
{"gene":"Zfp617 (GeneID 170938)","Tnf reporter robust z-score":-1.8,"fewer than 50 cells in well":"enough cells in well","Outcome":"active"}
{"gene":"Vmn1r66 (GeneID 171264)","Tnf reporter robust z-score":0.95,"fewer than 50 cells in well":"enough cells in well","Outcome":"inactive"}
{"gene":"Lpcat3 (GeneID 14792)","Tnf reporter robust z-score":-0.55,"fewer than 50 cells in well":"enough cells in well","Outcome":"inactive"}
{"gene":"Mapre2 (GeneID 212307)","Tnf reporter robust z-score":0.22,"fewer than 50 cells in well":"enough cells in well","Outcome":"inactive"}
{"gene":"Or8h8 (GeneID 258842)","Tnf reporter robust z-score":-0.18,"fewer than 50 cells in well":"enough cells in well","Outcome":"inactive"}
